{"source": "patent US8283308B2", "about": "“Copolymer-stabilized emulsions” (The Regents of the University of California, priority 2007, dated 2012)", "experiment": "Emulsion droplet sizes from cryo-TEM (CTEM) images", "assay_type": "physicochemical", "conditions": "1.0 mM", "method": "For certain applications, further size separation may be desired. For these applications, we could also use centrifugation to fractionate the emulsion and isolate emulsions of a desired size range. To accomplish such separation, a 1.5 mM K40rL20 emulsion (φ=0.2) that had been passed through the microfluidic homogenizer for six passes (N=6) was placed in a desktop centrifuge set to a low speed of 3,500 rpm (revolutions per minute) for 4 hours. Due to the differences in mass densities of the droplet structures with respect to the continuous liquid phase, the larger droplets rose to the top as a plug more rapidly and could be separated out easily from the extremely dilute suspension of smaller droplets below (i.e. the remnants). We were able to separate out larger droplets that had diameters greater than 300 nm. The remnant suspension had droplet diameters less than 300 nm, therefore, a higher speed centrifuge was needed to further fractionate the sizes of the droplets. The remnant suspension was placed in an ultracentrifuge and centrifuged […] at 20,000 rpm.\nA 1.5 mM K40rL20 emulsion (prepared as above) was centrifuged in a 15 mL plastic centrifuge tube for 24 h at 3,500 rpm using an IEC HN-S tabletop centrifuge. A 0.5 mm plug formed, and was separated from the remnants. […]", "note": "Some results were stated once for a whole list of compounds, not compound by compound.", "data": [{"substance": "Poly(L-lysine-HBr)40-b-poly(rac-leucine)20 [K40(rac-L)20]", "values": [{"measurement": "diameters of a large population of droplets", "result": "≤ 100", "unit": "nm"}]}]}
